Source: publication PMC5571105
No constants are given. Whether binding was seen depends on the method and setting. A result given as binding can be weak or reduced; the word gives no strength. For some assays here: Binding seen in cells or lysates may run through a third protein. For some assays here: Tags and fused reporters may be left off the sequences shown.

B1: OsRR26 (protein, UniProt Q5N6V8 1-582)
chain: MDATAFPYGLRVLVVDDDPTWLKILEKMLRKCSYEVTTCGLARVALDILRERKNKFDIVISDVNMPDMDGFKLLEHIGLEMDLPVIMMSIDGETSRVMKGVQHGACDYLLKPVRMKELRNIWQHVYRKKMHEVKEIEGNDSCDDLQILRNSFEGLDEKSLFMRSDSDTMRKRKDVDKDHADQESSDGNTVKKARVVWSVDLHQKFVNAVNQIGFDKVGPKKILDLMNVPGLTRENVASHLQKYRLYLSRLQKQNEERILGAARQDFSHKGTSENLNLRSSFQEQPSNIANGYPHASQNIQTQANMLDSQLEDTKSTVPLPVPDKKRTLASDAADSQNVTSASSLGGVLSFKSMPVNQDRKPSETMILECQAWTGGIPSKQFMQYPKHNHERCDLLGDYSCLPKPDLEHPVGPSNLYAPPPLISMSCGMEGDARDFSDVKPAIMDCIKSLSPALTCTVDSVSVQLSDSVVTSIDGDLKSSGVDGLPSIKDCCLDQTNSQGSLRPSQEPSIIGSTELASLPEDLPSYPLHGVSLENIGLSSIDLLNYSDAMILSGLQSNWYDDLEFSSEMMDYPSIDECLFASS
B2: OsRR24 (protein, UniProt Q6H805 1-626)
chain: MTVEERQGRVGGHGVSGGGGGRDQFPVGMRVLAVDDDPTCLKILENLLLRCQYHVTTTGQAATALKLLRENKDQFDLVISDVHMPDMDGFKLLELVGLEMDLPVIMLSANGETQTVMKGITHGACDYLLKPVRLEQLRTIWQHVIRRKNCDAKNRGNDDDAGQKAQGMNNEGESIGANRNKRQSRKSRDENGDDGDDSDENSNENGDSSTQKKPRVVWSVELHRKFVAAVNQLGIEKAVPKKILDLMNVENITRENVASHLQKYRLYLKRLSTDASRQANLAAAFGGRNPAYINMNSFGNYNAYGRYRTVPTAGHTQANNILTRMNSPSAFGVHGLLHSQPIQLGHAQNNLSTSLNDLGGLNNGNMIRGAQMSTILTGPSGNSFPNISNGAPLATANRSLQPLESSNQQHLSRVHSSSADPFSTLVGESPQFPDLGRTTNTWQTAVPSNIQDRGHNDNMSQATLHMNGPKIEPVSSFTSSNQIPLLGNEMQGQVASLASNVPIAFNQDTSPFNYGSSTNSRDMLNNSHVFSNSSINTSLPNLSLDNPAVPRQTLDRGNTGIVSPMQDGRIHHQAVSNQLNYNDDLMRTTGLQRGLSGGLDDIVVDMFRPDREDDGVPYIDGDWELV
B3: OsRR21 (protein, UniProt Q8H7S7 1-691)
chain: MAPVEDGGGVEFPVGMKVLVVDDDPTCLAVLKRMLLECRYDATTCSQATRALTMLRENRRGFDVIISDVHMPDMDGFRLLELVGLEMDLPVIMMSADSRTDIVMKGIKHGACDYLIKPVRMEELKNIWQHVIRKKFNENKEHEHSGSLDDTDRTRPTNNDNEYASSANDGAEGSWKSQKKKRDKDDDDGELESGDPSSTSKKPRVVWSVELHQQFVNAVNHLGIDKAVPKKILELMNVPGLTRENVASHLQKFRLYLKRIAQHHAGIANPFCPPASSGKVGSLGGLDFQALAASGQIPPQALAALQDELLGRPTNSLVLPGRDQSSLRLAAVKGNKPHGEREIAFGQPIYKCQNNAYGAFPQSSPAVGGMPSFSAWPNNKLGMADSTGTLGGMSNSQNSNIVLHELQQQPDAMLSGTLHSLDVKPSGIVMPSQSLNTFSASEGLSPNQNTLMIPAQSSGFLAAMPPSMKHEPVLATSQPSSSLLGGIDLVNQASTSQPLISAHGGGNLSGLVNRNPNVVPSQGISTFHTPNNPYLVSPNSMGMGSKQPPGVLKTENSDALNHSYGYLGGSNPPMDSGLLSSQSKNTQFGLLGQDDITGSWSPLPNVDSYGNTVGLSHPGSSSSSFQSSNVALGKLPDQGRGKNHGFVGKGTCIPSRFAVDEIESPTNNLSHSIGSSGDIMSPDIFGFSGQM
B4: OsRR22 (BiFC fusion) (protein, UniProt Q5SML5 1-696)
chain: MLLGALRMEERKGLMGRERDQFPVGMRVLAVDDDPVCLKVLETLLRRCQYHVTSTNQAITALKLLRENRDMFDLVISDVHMPDMDGFKLLELVGLEMDLPVIMLSVNGETKTVMKGITHGACDYLLKPVRIEELRNIWQHVVRRKFGNRERNNLDFSKECNKPQSADTDHGPYQPTCGSSDQNGRSSRKRKELHGEDDDEGDDNDYQENDEPSAAKKPRVVWSVELHRKFVAAVNQLGIDKAVPKRILELMNVEKLTRENVASHLQKYRLYLKRLGAVASQQASIVAAFGGRDPSFLHIGAFEGLQSYQPFAPSAALPSFNPHGLLTRTSAAAAFGLQELAAPSSTIQTSTGNVTVGHCLEENQQANLAQGLTAAIGQPQLQQNWIHQEGNGLSDVFSGSSLTNTLSSTLQRVPSSSLPPQELLECKQAKVSMPPSIRIPPSSSALLERTLGVSTNLGDSSISQQGALPIDGGFSADRLPLHSSFDGAVATKLDTSLAASQREIGQQGKFSVSMLVSPSDNLALAKNAKTGASSSGSTIILPLDTARHSDYLQFGGASNSLQKMDGQKQDHIQSSNIIWSSMPSTQLPSDTQIHNTQNQRLDSGSFNHNIGAHLADQTNASASILPQMKFDTRISEEKMKQKNTYDLGSSKLQGGFNSSGCNFDGLLNSIIKVEKDDLPFMDNELGCDLFPLGACI
B5: nEYFP-OsRR23 (protein, UniProt Q6K8X6 1-688)
chain: MRAAEERKGVVPAARRRDQFPVGMRVLAVDDDPVCLKVLETLLLRCQYHVTTTNQAAIALKMLRENRDMFDLVISDVHMPDMDGFKLLELVGLEMDLPVIMLSVNGETKTVLKGITHGACDYLLKPVRIEELRNIWQHVIRRKFSTRDRANLDFYEECNKPPNADSDHVHGHVTCGSPDQSGRPSKKRKEYCSEEEDEGEVNTQDIDDPSAPKKPRVVWSVELHRKFVAAVNQLGIDKAVPKRILELMNVEKLTRENVASHLQKYRLYLKRLSAVASQQVSIVAALGGRDPFLHMGGFEGLQGYQAFTSSAALSSFTPHGLLNSPRNNPAALGTQGVPASKSIQTMSGSHTLSHSINDANKYHLSLPGNQKGNLGQGLATSLGQTQMQQKWIHEETDDLSTILSGNGLSNGMSGTLQSVTSSPLLPQELAECTQAKIVSQPSIRTSSVSSEHIEGAVGVSSGLLESRVSQQSTIPLSGFSANGLLIHGSFNNTCANKLGGTSSSCAPARSSNDLMVARDTKGGASSFGGAMLLPPDTEQKYLNFGGGNGLKQKFDDRTADSLFDLKFVWSSVPSSQLASNIGAHHAMSQRWNNSSSNSSNIGARMIGQATSSGSTVIPQMKTDFLVSGDMAMPKNASDLSIPKLQSELSSSSCSFDGLLNSIVKVEKDDVTFSDDLGCGDFYSLGACI
B6: cEYFP-OsRR21 (protein, UniProt Q8H7S7 1-691)
chain: B3 chain

Columns and labels:
OsPHP1 (rice) [1] = test: two-hybrid; β-galactosidase filter lift assay (LacZ reporter) of the co-transformed yeast colonies, X-gal as substrate, 30 °C in the dark
OsPHP2 (rice) [2] = test: as above
OsPHP3 (rice) [3] = test: as above
OsRR4 (rice) [4] = test: as above
OsPHP1 (rice) [5] = test: two-hybrid; S. cerevisiae AH109; bait in pGBD-C1 (GAL4 binding domain; written as target), prey in pGAD-C1 (GAL4 activation domain; written as binder); serial dilutions spotted on triple drop-out medium with 5 mM 3-AT (HIS3) and quadruple drop-out medium (ADE2), 30 °C; growth on quadruple drop-out shows strong interaction
OsPHP2 (rice) [6] = test: as above
OsPHP3 (rice) [7] = test: as above
OsRR4 (rice) [8] = test: as above
OsRR12 (rice) [9] = test: two-hybrid; β-galactosidase filter lift assay (LacZ reporter) of the co-transformed yeast colonies, X-gal as substrate, 30 °C in the dark
OsRR12 (rice) [10] = test: two-hybrid; S. cerevisiae AH109; bait in pGBD-C1 (GAL4 binding domain; written as target), prey in pGAD-C1 (GAL4 activation domain; written as binder); serial dilutions spotted on triple drop-out medium with 5 mM 3-AT (HIS3) and quadruple drop-out medium (ADE2), 30 °C; growth on quadruple drop-out shows strong interaction
OsRR5 (rice) [11] = test: two-hybrid; β-galactosidase filter lift assay (LacZ reporter) of the co-transformed yeast colonies, X-gal as substrate, 30 °C in the dark
OsRR5 (rice) [12] = test: two-hybrid; S. cerevisiae AH109; bait in pGBD-C1 (GAL4 binding domain; written as target), prey in pGAD-C1 (GAL4 activation domain; written as binder); serial dilutions spotted on triple drop-out medium with 5 mM 3-AT (HIS3) and quadruple drop-out medium (ADE2), 30 °C; growth on quadruple drop-out shows strong interaction
[13] = target: OsPHP1 (BiFC fusion) (rice); test: split reporter; BiFC in onion epidermal peel cells, nEYFP and cEYFP fusions under the 2XCaMV35S promoter co-transformed by particle bombardment; YFP seen by confocal microscopy 12 hours post transfection; repeated three times
[14] = target: OsPHP3 (BiFC fusion) (rice); test: as above
cEYFP-OsPHP2 (rice) = test: as above
nEYFP-OsRR5 (rice) = test: as above

Binder	binding (OsPHP2 (rice) [2])	binding (OsPHP3 (rice) [3])	binding (OsPHP2 (rice) [6])	binding (OsPHP3 (rice) [7])	binding [13]	binding [14]	binding (cEYFP-OsPHP2 (rice))	further results
B1	binds	binds	binds	binds	–	–	–	binding (OsPHP1 (rice) [1]): binds; binding (OsRR4 (rice) [4]): binds; binding (OsPHP1 (rice) [5]): binds; binding (OsRR4 (rice) [8]): binds
B2	binds	binds	binds	binds weakly	–	–	–	binding (OsRR12 (rice) [9]): binds; binding (OsRR12 (rice) [10]): binds
B3	–	–	–	–	–	–	–	binding (OsRR5 (rice) [11]): binds; binding (OsRR5 (rice) [12]): binds weakly
B4	–	–	–	–	binds	binds	binds	–
B5	–	–	–	–	binds	binds	binds	–
B6	–	–	–	–	–	–	–	binding (nEYFP-OsRR5 (rice)): binds
